Reference: PubChem BioAssay AID1347423 (Functional Genomics Laboratory (NCATS/FGL), 2020)
Out of some 52,000 sequences screened, about 210 (0.4%) were called active.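 The calls were made as follows: active = gene whose silencing raises cell survival under the drug, median off-target-corrected z-score across its silencing RNAs 2 or more; inactive = the rest.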 This is one part of the list.

assay: Resistance to Poly (ADP-Ribose) Polymerase inhibitor: Gene Identification via Genome-wide siRNA Screen; conditions: mouse BRCA2 R2336H ES cells, olaparib, CellTiter-Glo viability; active compounds read high
Outline: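 Genome-wide siRNA screen (3 siRNAs/gene, 20 nM) in mouse ES cells carrying hypomorphic BRCA2 R2336H; olaparib 500 nM added 48 h post-transfection, CellTiter-Glo viability 72 h later. Normalized to plate-median negative control; MAD z-scores, gene median, seed-adjusted.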

Sequence | z-score
GCUUGGCCAUCAUUGGAGCTT against H2-Q6 | inactive: -0.703
GGUCAGCAAAAGAGAUUCUTT against 9830124H08Rik | inactive: 0.391
GCUGGUGAUUCCUAAACUGTT against Oprd1 | inactive: 0.413
GGUGCUGAUUACAGUAGAATT against Pcdhga10 | inactive: 2.9
GGAGGGACAUGAUUUUGAATT against Pfkfb2 | inactive: -0.00662
GGUUCUUGUUUCAUUUUGCTT against 9330140G23 | inactive: 0.474
GGAGACUUUUGAAAUAGAATT against C8a | inactive: -0.768
CGAGGAAAAUUCCCGUCCCTT against 1810003N24Rik | inactive: -0.593
GCAAUGGCUGAAAUCCUCCTT against Dnmt3l | inactive: -0.48
CCAUUGUGUGGUACUUAAATT against 4833420N02Rik | inactive: -1.12
GCACGAAUCCUUGGAGAAATT against 4933430F08Rik | inactive: -1.11
GGCCAAGGUCAAUAACUCCTT against Recc1 | inactive: 0.752
GGUUGAAUAUUGAAUGGAATT against 9130422G05Rik | inactive: 0.44
GGAUUACCCAUCCUACACATT against Eya4 | inactive: -0.867
GGCACUACUAAGAACCUUATT against A630048M13Rik | inactive: -0.111
GGCUCCAGUACGUCAUCCUTT against 2610528O22Rik | inactive: -0.672
GGUUAACUUGAGCUCUGUGTT against Znrf4 | inactive: -0.861
GGUAAAACUGUAGUGAUCGTT against Slfn4 | inactive: -1.14
UUGUGAUUCCAAUUUCCCUTT against Olfr1330 | inactive: -1.21
GGAACAUGACAUUUUUGUCTT against 1500032L24Rik | inactive: -0.579
CCAUAAAUCACUCAGUUUGTT against Tenr | inactive: 1.11
GGCUGAGAAGCUAAAGGAGTT against Pabpn1 | inactive: -0.504
GCGAAUGGAUUGCUACAAUTT against Klhl7 | inactive: 0.00963
GGGAGUCAUUCCCAAUGAUTT against Mras | inactive: -1.06
UCCGUUGGAGUAUCGAUGUTT against MGC102419 | inactive: -0.312
GCUACGUCACUUCUGUUUUTT against Acmsd | inactive: -0.161

Random excerpt: five entries already listed.
Sequence | z-score
GGAUUACCCAUCCUACACATT against Eya4 | inactive: -0.867
GGUUGAAUAUUGAAUGGAATT against 9130422G05Rik | inactive: 0.44
UUGUGAUUCCAAUUUCCCUTT against Olfr1330 | inactive: -1.21
GGAACAUGACAUUUUUGUCTT against 1500032L24Rik | inactive: -0.579
GGAGACUUUUGAAAUAGAATT against C8a | inactive: -0.768

Further records:

Sequence | z-score
GGCCAGAUGCAGUCUGUGUTT against 2410170E21Rik | inactive: -1.65
GGCUCUAGGACCAAAAUUUTT against Hsd3b2 | inactive: 0.8
CCCUCGUUGCUUUCUGCAUTT against Slc16a8 | inactive: -0.387
GGAUUUUUGCCUCUAACUUTT against Bysl | inactive: -2.72
GGACUUUGAGGAGAAGGAUTT against Rabep2 | inactive: -1.27
GCUGGAAGAAAACUUCUAUTT against Phf15 | inactive: 0.188
GCUGGAUCUAGGUACCAAGTT against 2410170E21Rik | inactive: -1.19
GGAAUCAGCAAACUCAACCTT against Rnase11 | inactive: -0.619
GCAUGGGAUUGGUUCAUGATT against Nmi | inactive: -0.669
GCCCAAAAAGGAGGGUAGUTT against Aebp1 | inactive: 1.64
GGCUCUUUGAAGUACUACATT against Ercc1 | inactive: -1.39
GGAUUCAAGGAAGGCCUUCTT against Myl7 | inactive: -0.0901
CCAGUGGUCUGAAUCAGAUTT against Fbxw11 | inactive: 0.544
GCCCGUCCUGUUUGGAUUATT against Wdr53 | inactive: 0.195
GGUGAAGUUUUUCUACUUGTT against Tram2 | inactive: -0.679
GGACAAGUUUAACAGGAAUTT against Apoa4 | inactive: 2.13
GGAGCACUUUGUAUGGAACTT against 3010021M21Rik | inactive: 1
GGAAUGGUUGCCUCUGUUATT against Olfr1182 | inactive: -0.241
CCGAAAACAAUAACUCCUCTT against Six1 | inactive: 0.0211
GCCUGGUUUAACAAUCCUCTT against 9630048M01Rik | inactive: 1.04
GGACAAGCUAGAAUUUGCCTT against BC003266 | inactive: -0.372
CCCACCAGUUGUCAUGAAUTT against 2900075G08Rik | inactive: 0.843
GGUCACCCAUGUACUUCUUTT against Olfr1189 | inactive: 0.28
GGAACACUGGAAAAAUGUUTT against Ldh3 | inactive: 0.332
GGCAGAGCUCAAAAAGAAATT against Ankrd1 | inactive: -0.111
CGUAGAUCUUUCAUUUGUCTT against 2610025M23Rik | inactive: 1.42

Sequence | z-score
GGAACUAGAAGAAAUGUUATT against Mrps9 | inactive: -0.451
GGAGAAUCAUGGACAGCUGTT against Olfr2 | inactive: -1.02
GGCUGAGAUCUAGCUUACATT against Hist2h3c2 | inactive: -0.0286
GGACAUUGUCCUGAAUGGCTT against Hsd3b3 | inactive: -0.372
GGAGAGCAUUUCUUAAGAATT against Pex14 | inactive: -0.976
CCAAAAGUCCGAUAUGAAATT against D14Ertd231e | inactive: -1.57
GAAUGCUAUUAGGAAACUGTT against Olfr1226 | inactive: -0.137
UUUUGCUGAAUGGUAUGUATT against Cpsf6 | inactive: 0.3
GCCAGAAGUCCGAUACUACTT against Plk2 | inactive: -0.0495
CGAGUUCCCUAUCAAUCUCTT against Flrt1 | inactive: 0.164
GGGAGAAAAAGGCAUUUUUTT against 1110038F21Rik | inactive: 1.68
GGAGCUAGAGUGCUCAAGATT against Ceacam14 | inactive: 1.3
GUUUCUGGGUGAGCGCGAUTT against Fzd2 | inactive: -1.19
AGCUCCAUCCUAAUGAGGUTT against Klk22 | inactive: -0.923
GGCCAAGGAAAGUAUGAAUTT against Sox7 | inactive: 0.616
GGACAUGUACAGACCUCACTT against Cacng5 | inactive: -0.402
GCCAUUUCAUACAUUUUACTT against C630028L02Rik | inactive: 2
CGGACUCAAGCUUGUGAAATT against Bk | inactive: -0.508
GGCUUACCAAUGUGAAUGGTT against Trpv5 | inactive: -0.397
GGAAUCUUUAGACCAUCUCTT against Myh1 | inactive: 1.77
GAACUACUACCGCUUAGCATT against Mrs2l | inactive: -0.336
GCUGACUCUUAGAUAAAUATT against Seh1l | inactive: -1.2
CCAAUUUGUCAAAACAAUCTT against Slit2 | inactive: 1.22
GGCUUCUACACAUGGGAUGTT against Rnaset2 | inactive: -0.673
GGAAGAUUUUUCAAGAAAGTT against 4833420K19Rik | inactive: 1.71
GGAAGAAACAGGGAUUGAUTT against 5330438E18Rik | inactive: -0.473

Sequence | z-score
CGGUCCUUUUUAAACACUUTT against BC011468 | inactive: -0.208
GCCUGUUCGGUGUUCAACUTT against Etv3 | inactive: -0.395
GUCCAGUAACAUGCAUGAGTT against Defb6 | inactive: -2.58
GGAAAAGAUUGUCUUGUCCTT against 0710005M24Rik | inactive: -0.571
GGCAACUGAAUGUUUCCUATT against D7Rp2e | inactive: -0.333
GCUCUAGACAUAUGAGGCUTT against BC052883 | inactive: 0.828
GGCAUGUAUCAUUUUGUCATT against E430028B21Rik | inactive: 0.11
GGAUAAAGAGUUUUACAGATT against Prg | inactive: 0.102
GGACUGUGAAAAGAUGUACTT against Tmprss8 | inactive: 0.0642
GGACCUGAAUCCUCCCAAATT against G431001E03Rik | inactive: 0.202
CGAACCAGGAAAUGGAUUCTT against Crhbp | inactive: 1.04
GGUUACCAGUUAUAUGGCGTT against Mccc2 | inactive: 0.75
CGGAAGGAAGUGCCUAAACTT against 2610510H01Rik | inactive: -0.665
GUAGGAAGGAGUGAGCAUUTT against Rslcan24 | inactive: 0.00982
CCGAGAGGAUCGUAUAUCATT against Plcg1 | inactive: 0.712
GGGACAAUUCAGGAUGGAGTT against Tg737Rpw | inactive: 0.351
CCUUCGACUAUUCUUACUGTT against Kif1c | inactive: -0.0667
GGAAAAGAGUGAGAUUCAGTT against 4632409L19Rik | inactive: 3.08
GACAUACACCUCACCUUGUTT against Hoxa6 | inactive: 0.0073
GCCAGGUGGAACCAAGUAUTT against Zcchc17 | inactive: -2.9
GGUCUAGCUGCAUUGUUUGTT against Lgals8 | inactive: 0.757
GAAGAUCUUUCCCAUGGGUTT against Psmb3 | inactive: -2.96
GGAAGCCAUGUUUGGAAGATT against 1110014K05Rik | inactive: 0.959
GGUACAAACAAGAUGUGGATT against Smc5l1 | inactive: -0.662
GGAACUUUGUGAAGGAAGCTT against Cog8 | inactive: -0.446

Individual results from the entries so far.
GGUUACCAGUUAUAUGGCGTT against Mccc2 | z-score: inactive: 0.75
GGCAACUGAAUGUUUCCUATT against D7Rp2e | z-score: inactive: -0.333
GGGACAAUUCAGGAUGGAGTT against Tg737Rpw | z-score: inactive: 0.351
